Reference: patent US20020160975A1, “Conserved XIAP-interaction motif in caspase-9 and Smac/DIABLO for mediating apoptosis” (Thomas Jefferson University, priority 2001, published 2002)
These are yes or no findings as the source states them, for the method shown. Some results given as binding are weak or reduced against the parent protein; the word gives no strength.

Sequences of proteins named here, by UniProt entry; tags and fusion partners are left off. Residues count along the entry.
UniProt P98170, residues 238-358: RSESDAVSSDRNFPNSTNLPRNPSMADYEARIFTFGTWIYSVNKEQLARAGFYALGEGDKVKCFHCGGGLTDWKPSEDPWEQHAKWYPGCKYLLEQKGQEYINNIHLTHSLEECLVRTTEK

Key:
[1] = biological target: isolated BIR3 domain of XIAP (UniProt P98170); assay: GST pull-down competition, p12-GST on resin, BIR3 in solution
[2] = biological target: isolated BIR3 domain of XIAP (UniProt P98170); assay: GST pull-down competition, 200 µM peptide, p12-GST as competitor partner
[3] = biological target: isolated BIR3 domain of XIAP (UniProt P98170); assay: GST pull-down competition, 200 µM peptide, Smac-GST as competitor partner
[4] = biological target: isolated BIR3 domain of XIAP (UniProt P98170); assay: GST pull-down competition, Smac-GST on resin, BIR3 in solution

binding [1]	binding [2]	binding [3]	binding [4]	Binder
binds	binds	–	–	AVPIAQK [Smac-N7 peptide (AVPIAQK)]
–	–	binds	binds	ATPFQEGLRTFDQLD [chemically synthesized caspase-9 linker peptide (…)]
